In publication PMC12852734, “Design of precision therapeutics for a CKD risk allele by targeting Shroom3-Rock interaction” (Nature Communications, 2025):
Results are given in words; binding and its absence hold for the method and conditions named. In cells and extracts the contact can be indirect. For part of these data: Binding calls can cover weak binding; strength is not graded here.

Sequences of proteins named here, by UniProt entry; tags and fusion partners are left off. A change or cut given only in a name is not applied to a line headed by its entry.
UniProt Q8TF72: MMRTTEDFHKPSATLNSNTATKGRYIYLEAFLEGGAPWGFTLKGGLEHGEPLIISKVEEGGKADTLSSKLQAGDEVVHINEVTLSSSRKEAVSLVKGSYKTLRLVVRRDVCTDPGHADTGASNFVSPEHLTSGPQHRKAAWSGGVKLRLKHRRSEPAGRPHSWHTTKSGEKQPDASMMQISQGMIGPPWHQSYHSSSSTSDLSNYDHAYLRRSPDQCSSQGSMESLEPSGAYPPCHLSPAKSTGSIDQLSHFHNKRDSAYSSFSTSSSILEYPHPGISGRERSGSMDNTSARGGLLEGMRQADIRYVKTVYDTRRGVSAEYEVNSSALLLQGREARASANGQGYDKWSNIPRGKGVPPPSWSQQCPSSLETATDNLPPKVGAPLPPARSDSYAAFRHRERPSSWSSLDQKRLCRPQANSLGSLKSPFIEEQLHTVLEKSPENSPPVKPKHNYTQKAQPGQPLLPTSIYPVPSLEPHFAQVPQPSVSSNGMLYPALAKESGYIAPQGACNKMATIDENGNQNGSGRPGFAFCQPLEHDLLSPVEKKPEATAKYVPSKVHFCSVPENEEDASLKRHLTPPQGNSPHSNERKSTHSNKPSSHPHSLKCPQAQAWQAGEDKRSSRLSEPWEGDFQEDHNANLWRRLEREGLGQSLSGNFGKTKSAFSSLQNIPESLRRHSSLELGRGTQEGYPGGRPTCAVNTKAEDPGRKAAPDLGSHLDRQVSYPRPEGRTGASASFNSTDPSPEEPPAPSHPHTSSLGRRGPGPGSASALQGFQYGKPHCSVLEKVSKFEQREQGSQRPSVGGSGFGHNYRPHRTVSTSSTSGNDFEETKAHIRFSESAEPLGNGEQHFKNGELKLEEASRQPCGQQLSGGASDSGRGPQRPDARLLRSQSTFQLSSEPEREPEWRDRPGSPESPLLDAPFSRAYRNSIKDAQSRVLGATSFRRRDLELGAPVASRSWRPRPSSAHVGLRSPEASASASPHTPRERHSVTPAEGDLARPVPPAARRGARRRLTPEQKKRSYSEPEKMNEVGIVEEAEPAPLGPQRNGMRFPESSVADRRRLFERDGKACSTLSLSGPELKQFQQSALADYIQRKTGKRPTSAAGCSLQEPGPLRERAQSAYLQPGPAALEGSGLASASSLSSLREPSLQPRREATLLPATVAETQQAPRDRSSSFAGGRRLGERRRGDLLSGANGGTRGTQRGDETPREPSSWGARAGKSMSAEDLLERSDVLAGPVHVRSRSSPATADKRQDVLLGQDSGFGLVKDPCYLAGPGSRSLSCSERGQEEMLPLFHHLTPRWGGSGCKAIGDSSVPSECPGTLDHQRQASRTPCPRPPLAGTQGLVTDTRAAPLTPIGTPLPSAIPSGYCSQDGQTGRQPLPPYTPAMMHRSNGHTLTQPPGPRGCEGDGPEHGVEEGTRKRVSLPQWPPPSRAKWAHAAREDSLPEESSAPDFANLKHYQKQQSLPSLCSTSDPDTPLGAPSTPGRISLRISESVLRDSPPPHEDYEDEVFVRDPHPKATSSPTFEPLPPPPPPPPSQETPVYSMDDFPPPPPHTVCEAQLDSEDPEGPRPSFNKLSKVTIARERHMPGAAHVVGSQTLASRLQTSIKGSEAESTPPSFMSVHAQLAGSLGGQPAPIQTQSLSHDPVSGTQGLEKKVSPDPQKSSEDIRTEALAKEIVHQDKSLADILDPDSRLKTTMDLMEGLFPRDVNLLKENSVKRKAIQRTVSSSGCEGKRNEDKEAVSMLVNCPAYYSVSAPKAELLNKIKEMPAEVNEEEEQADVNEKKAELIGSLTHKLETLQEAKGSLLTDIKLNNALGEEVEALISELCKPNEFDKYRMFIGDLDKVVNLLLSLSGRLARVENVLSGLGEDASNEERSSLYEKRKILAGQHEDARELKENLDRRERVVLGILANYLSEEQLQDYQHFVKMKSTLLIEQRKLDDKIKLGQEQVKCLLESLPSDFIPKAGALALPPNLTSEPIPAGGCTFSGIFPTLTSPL
UniProt O75116: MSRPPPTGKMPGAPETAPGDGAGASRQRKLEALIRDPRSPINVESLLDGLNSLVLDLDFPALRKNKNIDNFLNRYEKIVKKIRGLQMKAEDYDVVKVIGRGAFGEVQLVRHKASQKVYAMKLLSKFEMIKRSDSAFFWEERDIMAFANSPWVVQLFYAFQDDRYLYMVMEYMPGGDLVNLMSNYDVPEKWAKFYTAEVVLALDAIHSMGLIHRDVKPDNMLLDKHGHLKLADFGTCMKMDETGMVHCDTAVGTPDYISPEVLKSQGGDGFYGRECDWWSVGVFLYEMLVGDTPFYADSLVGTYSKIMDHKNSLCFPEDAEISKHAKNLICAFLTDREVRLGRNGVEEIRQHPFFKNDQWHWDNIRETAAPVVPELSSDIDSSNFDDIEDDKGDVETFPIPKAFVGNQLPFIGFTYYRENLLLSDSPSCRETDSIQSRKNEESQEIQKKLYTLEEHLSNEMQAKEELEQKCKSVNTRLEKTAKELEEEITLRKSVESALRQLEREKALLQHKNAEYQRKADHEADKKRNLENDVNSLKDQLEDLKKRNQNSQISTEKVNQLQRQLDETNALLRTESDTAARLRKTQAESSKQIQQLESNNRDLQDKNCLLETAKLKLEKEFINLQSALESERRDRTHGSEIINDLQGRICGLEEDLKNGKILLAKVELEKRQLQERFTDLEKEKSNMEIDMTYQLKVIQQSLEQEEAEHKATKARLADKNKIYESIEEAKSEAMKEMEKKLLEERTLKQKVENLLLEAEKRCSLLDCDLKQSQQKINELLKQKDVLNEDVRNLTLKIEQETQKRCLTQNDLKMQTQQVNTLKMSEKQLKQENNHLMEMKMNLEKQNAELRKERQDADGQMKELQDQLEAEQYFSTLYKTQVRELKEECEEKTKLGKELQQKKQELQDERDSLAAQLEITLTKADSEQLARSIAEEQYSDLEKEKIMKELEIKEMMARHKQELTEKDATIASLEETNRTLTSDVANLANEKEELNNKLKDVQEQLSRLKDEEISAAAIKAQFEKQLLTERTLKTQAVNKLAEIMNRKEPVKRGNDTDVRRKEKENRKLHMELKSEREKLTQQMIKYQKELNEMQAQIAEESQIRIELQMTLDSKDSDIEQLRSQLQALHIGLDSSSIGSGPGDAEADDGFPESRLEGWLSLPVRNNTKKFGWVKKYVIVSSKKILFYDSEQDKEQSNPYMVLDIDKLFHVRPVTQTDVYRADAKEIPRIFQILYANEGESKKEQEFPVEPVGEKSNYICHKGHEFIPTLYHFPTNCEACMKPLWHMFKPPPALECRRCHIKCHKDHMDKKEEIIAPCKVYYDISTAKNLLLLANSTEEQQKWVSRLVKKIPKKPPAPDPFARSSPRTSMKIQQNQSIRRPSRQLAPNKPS

What was measured:
Assay in all cases: co-IP; lysates of HEK-293T cells transfected with V5-tagged SHROOM3 constructs, collected 36 h after transfection, precipitated with anti-V5-tag mAb magnetic beads; blotted for SHROOM3, ROCK1, ROCK2, ACTB; in one set WT-Sh3 cells were treated with DMSO or D4G before lysis
[1] = molecular target: PDZΔ-Sh3 (human SHROOM3 with the PDZ domain deleted, V5-tagged) (human) (UniProt Q8TF72)
[2] = molecular target: ASD2Δ-Sh3 (human SHROOM3 with the ASD2 domain deleted, V5-tagged) (human) (UniProt Q8TF72)
[3] = molecular target: ASD1Δ-Sh3 (human SHROOM3 with the ASD1 domain deleted, V5-tagged) (human) (UniProt Q8TF72)

“ROCK2 (Rho-associated coiled-coil kinase 2) (from UniProt O75116 1-1388) (enzyme)” was tested, and the binding [1] was “binds”, the binding [2] was “no binding” and the binding [3] was “binds”.
